{"sequences": {"note": "The chains behind the UniProt entries cited, without tags or fusion partners.", "UniProt Q8NER1, whole entry, looked up": "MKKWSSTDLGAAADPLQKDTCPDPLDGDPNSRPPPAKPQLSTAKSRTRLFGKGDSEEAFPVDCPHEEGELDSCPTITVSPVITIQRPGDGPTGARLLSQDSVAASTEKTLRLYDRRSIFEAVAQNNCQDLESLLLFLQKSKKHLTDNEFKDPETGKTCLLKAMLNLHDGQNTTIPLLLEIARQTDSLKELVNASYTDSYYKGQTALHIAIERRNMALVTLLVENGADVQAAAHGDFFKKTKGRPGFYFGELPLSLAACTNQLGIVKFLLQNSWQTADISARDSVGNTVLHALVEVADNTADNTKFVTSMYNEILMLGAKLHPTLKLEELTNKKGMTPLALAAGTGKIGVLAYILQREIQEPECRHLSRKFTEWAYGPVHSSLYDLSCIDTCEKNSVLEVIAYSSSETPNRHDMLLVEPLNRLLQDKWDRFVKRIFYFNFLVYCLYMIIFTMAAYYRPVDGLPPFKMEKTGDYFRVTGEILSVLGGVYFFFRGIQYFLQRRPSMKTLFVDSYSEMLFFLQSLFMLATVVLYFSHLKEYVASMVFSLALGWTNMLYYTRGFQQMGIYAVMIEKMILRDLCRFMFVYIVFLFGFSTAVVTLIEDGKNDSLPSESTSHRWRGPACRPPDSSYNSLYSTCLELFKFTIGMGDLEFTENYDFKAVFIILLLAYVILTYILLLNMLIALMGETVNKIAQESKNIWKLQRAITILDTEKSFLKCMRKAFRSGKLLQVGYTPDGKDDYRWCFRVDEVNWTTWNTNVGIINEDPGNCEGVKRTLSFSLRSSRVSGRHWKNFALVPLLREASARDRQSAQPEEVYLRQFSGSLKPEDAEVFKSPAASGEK"}, "source": "PubChem BioAssay AID540275", "about": "(National Center for Advancing Translational Sciences (NCATS), 2011)", "note": "Where “and” joins values, the source holds several entries; their conditions need not be identical. Identical values can stand only once. Among all 320,000 compounds or so, about 620 (0.19%) were called active. Inconclusive results, whose numbers are uncertain, are shown with a selection of clear calls. No stated cut-off is given here; in the data, active means activation above about 80%; inconclusive means between about 30% and that limit; inactive means weaker than that.", "data": [{"molecular_target": "Transient receptor potential cation channel subfamily V member 1 (Homo sapiens) (UniProt Q8NER1)", "assay": "HTS Assay for Compounds that Act as Agonists of the Vanilloid Receptor 1; further: 0% is about no effect", "conditions": "TRPV1-expressing cells, Fluo-8 calcium influx, agonist mode; at 8.33 µM, active compounds read high", "procedure,_shortened": "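Fluo-8 calcium influx in TRPV1-expressing cells, kinetic read (ex 480/em 520 nm). Compound added and read 3 min for agonist activity, followed by capsaicin at EC20 final and 2 min further read for enhancement.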", "values": [{"smiles": "CCOC(=O)C1(Cc2ccc(Cl)cc2)CCN(C(=O)CCc2ccncc2)CC1", "activation": "inconclusive: 68.1%"}, {"smiles": "COc1ccc(-c2cc([C@H]3[C@H]4C=CC[C@@H](C)[C@@H]4C(=O)N3Cc3ccccc3)ccc2F)cc1OC", "activation": "inactive: -3.89%"}, {"smiles": "COc1ccc(CCNC(=O)C(C)c2ccc([N+](=O)[O-])cc2)cc1", "note": "(stereo unspecified)", "activation": "inconclusive: 46.6%"}, {"smiles": "CCCCOc1ccc(C(=O)CCN2CCOCC2)cc1", "activation": "inconclusive: 45.3%"}, {"smiles": "CCOC(=O)c1c(CN(CC)CC)n(-c2ccccc2)c2ccc(O)cc12", "activation": "inconclusive: 44%"}, {"smiles": "CCCCN1c2cc(C)c(O)cc2C(C(=O)OCC)C1C", "note": "(stereo unspecified)", "activation": "inconclusive: 51.2%"}, {"smiles": "CN(CC(=O)NCCCc1ccccc1)Cc1ccc(Br)cc1", "activation": "inconclusive: 30.9%"}, {"smiles": "O=C(CCCOc1ccc(Cl)cc1)NCCc1ccccc1", "activation": "inconclusive: 36.5%"}, {"smiles": "N#CC1=C(SCC(N)=O)NC2=C(C(=O)c3ccccc32)C1c1ccc(Cl)cc1", "note": "(stereo unspecified)", "activation": "inactive: -3.09%"}, {"smiles": "C/C(=N\\NC(=O)C1CCCC1)c1ccc(Cl)c(Cl)c1", "activation": "inactive: 22.5%"}, {"smiles": "C=CCOC(=O)C(C#N)c1nc2ccccc2nc1N1CCN(c2ccccc2OC)CC1", "note": "(stereo unspecified)", "activation": "inconclusive: 37%"}, {"smiles": "O=C(OCC(=O)C12CC3CC(CC(C3)C1)C2)c1ccc(O)cc1O", "activation": "inactive: -3.49%"}, {"smiles": "COc1cccc(NC(=O)c2nn(C)c(C(=O)Nc3cccc(OC)c3)c2[N+](=O)[O-])c1", "activation": "inconclusive: 33.8%"}, {"smiles": "COc1ccc(NC(=O)C2CCN(c3nc(-c4ccc(OC)cc4)no3)CC2)cc1", "activation": "inconclusive: 52.7%"}, {"smiles": "COc1ccc(-n2nnnc2SCC(=O)c2ccc(O)c(O)c2)cc1", "activation": "inconclusive: 61.3%"}, {"smiles": "COc1cccc(C(=O)c2sc3nc(-c4ccccc4)cc(C(F)(F)F)c3c2N)c1", "activation": "inconclusive: 40.8%"}, {"smiles": "CCOc1ccccc1Nc1cc2n(c(=O)n1)CCc1cc(OC)c(OC)cc1-2", "activation": "inactive: 6.35%"}, {"smiles": "COc1ccccc1N1CCN(C(c2ccccc2Cl)c2nnnn2C(C)(C)C)CC1", "note": "(stereo unspecified)", "activation": "inactive: 12.1%"}, {"smiles": "O=C(Nc1cc(-c2nc3ncccc3o2)ccc1Cl)c1ccc([N+](=O)[O-])o1", "activation": "inactive: -1.96%"}, {"smiles": "CCCN(CC1CC1)C(=O)CSc1ncnc2sc(C)c(C)c12", "activation": "inconclusive: 49%"}, {"smiles": "O=C(COc1ccc2c(c1)OCO2)Nc1ccccc1F", "activation": "inactive: 13.5%"}, {"smiles": "O=C1NC2(CCCCCC2)C(=O)N1Cc1ccc(Br)cc1", "activation": "inconclusive: 37.8%"}, {"smiles": "COc1ccc(CCC(=O)NNC(=O)Nc2ccc(C(C)C)cc2)cc1", "activation": "inconclusive: 39.1%"}, {"smiles": "S=c1[nH]nc(COc2ccccc2)n1/N=C/c1ccc(Br)s1", "activation": "inconclusive: 39.1%"}, {"smiles": "COc1cc(CNc2nnnn2C)ccc1OCc1ccc(F)cc1Cl", "activation": "inconclusive: 75.2%"}, {"smiles": "CN(C)c1ccc(/C=N/N(CCC(=O)NC(C)(C)C)C2=NS(=O)(=O)c3ccccc32)cc1", "activation": "inconclusive: 41%"}, {"smiles": "O=C(Nc1ccccc1)N1CCN(c2cccc(C(F)(F)F)c2)CC1", "activation": "inconclusive: 77.9%"}, {"smiles": "Clc1cccc(-c2ccc(CNCc3ccccn3)o2)c1", "activation": "inconclusive: 45.3%"}, {"smiles": "CC1CC(C)CN(Cc2nc(N)nc(Nc3ccccc3)n2)C1", "note": "(stereo unspecified)", "activation": "inactive: 3.07%"}, {"smiles": "CCCCC(=O)NC(=S)Nc1cccc(Cl)c1N1CCCCC1", "activation": "inactive: 21.9%"}, {"smiles": "Cc1ccc(C(=O)CSc2nnnn2Cc2ccccc2)cc1C", "activation": "inconclusive: 30.8%"}, {"smiles": "COc1ccc(CN(C(=O)c2ccco2)c2ccccc2)cc1", "activation": "inconclusive: 32.6%"}, {"smiles": "CCOC(=O)c1cc2c(nc1NC(=S)NCc1ccccc1)CCCC2", "activation": "inactive: 11%"}, {"smiles": "CCc1cc2c(C)cc(=O)oc2cc1OC(=O)C1CCCN1C(=O)OC(C)(C)C", "note": "(stereo unspecified)", "activation": "inconclusive: 51.7%"}, {"smiles": "Cc1ccc(N2CCN(C(=O)Nc3cccc([N+](=O)[O-])c3)CC2C)cc1", "note": "(stereo unspecified)", "activation": "active: 82.9%"}, {"smiles": "COc1ccc(/C=C\\c2onc(C)c2S(=O)(=O)N2CCC(C(=O)NCc3ccco3)CC2)cc1", "activation": "inconclusive: 30.5%"}, {"smiles": "O=C(Nc1ccc2c(c1)OCO2)C1CCN(C(=O)c2ccc([N+](=O)[O-])cc2)CC1", "activation": "inactive: 1.31%"}, {"smiles": "Cc1cccc(NC(=O)C2COc3ccccc3O2)c1", "note": "(stereo unspecified)", "activation": "inconclusive: 55.9%"}, {"smiles": "CCCc1c(OCCCCc2nn[nH]n2)ccc(C(C)=O)c1O", "activation": "inactive: -0.358% and inactive: 0.532%"}, {"smiles": "Cc1ccc(OCCCn2c(CO)nc3ccccc32)cc1", "activation": "inconclusive: 46.1%"}, {"smiles": "CCOC(=O)Cn1nc(C)cc1NC(=O)c1ccncc1", "activation": "inactive: 2.03%"}, {"smiles": "O=C1C(CSCc2ccccc2)NC(=S)N1c1ccccc1", "note": "(stereo unspecified)", "activation": "inactive: 3.48%"}, {"smiles": "COc1ccc(C(=O)NC2=Nc3ccccc3N=C(C)C2c2ccccc2)cc1", "note": "(stereo unspecified)", "activation": "inconclusive: 39.4%"}, {"smiles": "Cc1ccc(OCc2cnc(Cl)s2)c(C)c1", "activation": "inconclusive: 33.8%"}, {"smiles": "COc1ccc(/C=N/NC(=O)c2nc(-c3ccccc3)n(-c3ccccc3)n2)cc1", "activation": "inactive: -1.68%"}, {"smiles": "N#Cc1ccc(NC(=O)Nc2cccc(C#N)c2)cc1", "activation": "inconclusive: 35.8%"}]}]}
